These are yes or no findings as the source states them, for the method shown. Some results given as binding are weak or reduced against the parent protein; the word gives no strength.
T1: MEX-5(T186A) (C. elegans) (UniProt Q9XUB2)
T1 sequence: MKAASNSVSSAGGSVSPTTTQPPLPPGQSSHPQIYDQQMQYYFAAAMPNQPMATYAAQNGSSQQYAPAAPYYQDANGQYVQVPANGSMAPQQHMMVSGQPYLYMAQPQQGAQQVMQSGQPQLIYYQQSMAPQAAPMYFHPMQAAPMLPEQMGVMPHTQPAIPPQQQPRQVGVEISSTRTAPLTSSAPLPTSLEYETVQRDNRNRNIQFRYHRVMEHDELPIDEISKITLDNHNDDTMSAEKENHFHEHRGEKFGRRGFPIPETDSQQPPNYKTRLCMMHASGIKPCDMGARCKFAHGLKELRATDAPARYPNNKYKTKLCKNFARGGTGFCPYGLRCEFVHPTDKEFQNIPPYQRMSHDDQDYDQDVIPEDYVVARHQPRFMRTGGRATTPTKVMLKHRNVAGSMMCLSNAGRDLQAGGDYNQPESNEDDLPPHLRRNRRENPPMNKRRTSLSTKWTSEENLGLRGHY

T2: MEX-5 (Muscle-EXcess protein 5), wild type (C. elegans) (UniProt Q9XUB2)
T2 sequence: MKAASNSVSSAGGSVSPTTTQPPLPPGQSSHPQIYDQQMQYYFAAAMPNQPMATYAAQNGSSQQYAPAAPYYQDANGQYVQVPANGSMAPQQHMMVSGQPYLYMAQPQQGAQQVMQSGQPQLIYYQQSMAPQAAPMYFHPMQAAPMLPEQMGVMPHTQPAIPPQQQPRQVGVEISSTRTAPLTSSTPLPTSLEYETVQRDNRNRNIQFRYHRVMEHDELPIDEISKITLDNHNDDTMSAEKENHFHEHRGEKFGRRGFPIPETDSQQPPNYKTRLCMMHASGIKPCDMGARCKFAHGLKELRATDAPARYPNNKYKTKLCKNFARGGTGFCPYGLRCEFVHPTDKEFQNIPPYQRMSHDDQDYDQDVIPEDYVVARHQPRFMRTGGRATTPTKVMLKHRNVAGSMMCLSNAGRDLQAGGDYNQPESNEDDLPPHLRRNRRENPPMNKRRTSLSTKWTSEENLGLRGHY


Tests used:
[1] = molecular target: T1, MEX-5(T186A) (C. elegans); assay: two-hybrid; yeast two-hybrid; Gal4-DBD fused to MEX-5 or MEX-5(T186A), Gal4-AD fused to MEX-6 or MEX-6(T190A); selective and nonselective medium; empty Gal4-AD vector as negative control
[2] = molecular target: T2, MEX-5 (Muscle-EXcess protein 5), wild type (C. elegans); assay: as above

| Binder | binding [1] | binding [2] |
| --- | --- | --- |
| MEX-6 (Muscle-EXcess protein 6), wild type (protein, UniProt Q09436 1-467) MTATSNSAPLAGGSLSSSATAQPPQPPPGHQQQHPLPQIYDSQMQYYYGSSMPNQPIPTYTAQNGAPQQFGTPPYYQDANGQFGQVPAQQQMMTAGHPYFYMAQPQQGGQHVAQSGQPQIFYYQQPLGQMAQQAAPMYFHPMQAASTPMLSEQMSMMPQIQSTNPQQSEQLRKSGAQISTTRTVPLTSSTPLPTSREYETVQRDRNRNSQSRYQCPIEHDDLPIDEISKITIDNHNDDTMSAEKENRFNKNRVEKLGRRGFAKPEVDSQLPHNFKTRLCMTHAAGINPCALGARCKFAHGLKELRASDIPTRYPNNKYKTKLCKNFARGGSGVCPYGLRCEFVHPSDTEFQNIPPYQRKMVEEHDSIPEDYVVARYQPRFMHTSGKATTPTKVTLKQRNVAGSMMCLSNTGRDLEAGGDFNHPEINENDLPPHLRRIRRGNPPVTRSRPSFSTKWTSVENLGLRGHY | binds | binds |
| MEX-6(T190A) (protein, UniProt Q09436 1-467) MTATSNSAPLAGGSLSSSATAQPPQPPPGHQQQHPLPQIYDSQMQYYYGSSMPNQPIPTYTAQNGAPQQFGTPPYYQDANGQFGQVPAQQQMMTAGHPYFYMAQPQQGGQHVAQSGQPQIFYYQQPLGQMAQQAAPMYFHPMQAASTPMLSEQMSMMPQIQSTNPQQSEQLRKSGAQISTTRTVPLTSSAPLPTSREYETVQRDRNRNSQSRYQCPIEHDDLPIDEISKITIDNHNDDTMSAEKENRFNKNRVEKLGRRGFAKPEVDSQLPHNFKTRLCMTHAAGINPCALGARCKFAHGLKELRASDIPTRYPNNKYKTKLCKNFARGGSGVCPYGLRCEFVHPSDTEFQNIPPYQRKMVEEHDSIPEDYVVARYQPRFMHTSGKATTPTKVTLKQRNVAGSMMCLSNTGRDLEAGGDFNHPEINENDLPPHLRRIRRGNPPVTRSRPSFSTKWTSVENLGLRGHY | no binding | binds |
